# Cleaved PARP in drug-treated melanoma cells

Compounds and concentrations:
CX-4945, 2000 nM: O=C(O)c1ccc2c(c1)nc(Nc1cccc(Cl)c1)c1ccncc12
YM155, 2 nM: COCC[n+]1c2c(n(Cc3cnccn3)c1C)C(=O)c1ccccc1C2=O
cisplatin, 8000 nM: N.N.[Cl][Pt][Cl]
enzastaurin, 4000 nM: Cn1cc(C2=C(c3cn(C4CCN(Cc5ccccn5)CC4)c4ccccc34)C(=O)NC2=O)c2ccccc21
GW0742, 10000 nM: Cc1cc(SCc2sc(-c3ccc(C(F)(F)F)c(F)c3)nc2C)ccc1OCC(=O)O
bortezomib, 5 nM: CC(C)C[C@H](NC(=O)[C@H](Cc1ccccc1)NC(=O)c1cnccn1)B(O)O
VX-702, 2000 nM: NC(=O)c1ccc(N(C(N)=O)c2c(F)cccc2F)nc1-c1ccc(F)cc1F
BMS-536924, 1000 nM: Cc1cc(N2CCOCC2)cc2[nH]c(-c3c(NC[C@@H](O)c4cccc(Cl)c4)cc[nH]c3=O)nc12
erlotinib, 4000 nM: C#Cc1cccc(Nc2ncnc3cc(OCCOC)c(OCCOC)cc23)c1
crizotinib, 1000 nM: C[C@@H](Oc1cc(-c2cnn(C3CCNCC3)c2)cnc1N)c1c(Cl)ccc(F)c1Cl
JZL184, 5000 nM: O=C(Oc1ccc([N+](=O)[O-])cc1)N1CCC(C(O)(c2ccc3c(c2)OCO3)c2ccc3c(c2)OCO3)CC1

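Human melanoma cell lines in 1,536-well plates were treated with two drugs together for 72 h, then fixed, stained and imaged. Values are the share of nuclei positive for cleaved PARP as a percentage of the same share in the DMSO control: 100 is the control level, higher means more apoptosis. Concentrations were fixed for each drug; these are the higher of two levels. The file gives one value for each pair and line, without errors, so small differences may be noise. The marker varies much from line to line, for technical or biological reasons.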
Only some of the drugs and lines screened are listed, without regard to their results.
An entry leaves out what has no value listed here.
A dash means that no value is listed here.

For GW0742 and VX-702 the values were WM1716: 84.4; MeWo: 103; LB2518-MEL: 109; UACC-257: 94.4; SK-MEL-2: 88.5. With enzastaurin and VX-702 the screen read WM1716: 75.9; MeWo: 96.0; LB2518-MEL: 189; UACC-257: 71.2; SK-MEL-2: 474. For enzastaurin and erlotinib the values were WM1716: 230; MeWo: 84.8; LB2518-MEL: 462; UACC-257: 129; SK-MEL-2: 167. With BMS-536924 and crizotinib the screen read WM1716: 57.8; MeWo: 66.5; LB2518-MEL: 112; UACC-257: 81.8; SK-MEL-2: 183.

Results for erlotinib and YM155 are WM1716: 219; MeWo: 494; LB2518-MEL: 5970; UACC-257: 1540; SK-MEL-2: 962. GW0742 and CX-4945 gave WM1716: 155; MeWo: 257; LB2518-MEL: 121; UACC-257: 52.8; SK-MEL-2: 89.0. Results for GW0742 and bortezomib are WM1716: 9770; MeWo: 2720; UACC-257: 38.4; SK-MEL-2: 204. For BMS-536924 and GW0742 the values were WM1716: 157; MeWo: 64.7; LB2518-MEL: 66.9; UACC-257: 7.8; SK-MEL-2: 258.

With GW0742 and cisplatin the screen read WM1716: 170; MeWo: 164; LB2518-MEL: 46.9; UACC-257: 476; SK-MEL-2: 108. BMS-536924 and VX-702 gave WM1716: 85.1; MeWo: 90.8; LB2518-MEL: 89.8; UACC-257: 72.3; SK-MEL-2: 103. With erlotinib and CX-4945 the screen read WM1716: 127; MeWo: 287; UACC-257: 138; SK-MEL-2: 280. cisplatin and VX-702 gave WM1716: 102; MeWo: 49.8; LB2518-MEL: 198; UACC-257: 562; SK-MEL-2: 63.4.

Results for erlotinib and VX-702 are WM1716: 62.3; MeWo: 153; LB2518-MEL: 156; UACC-257: 36.0; SK-MEL-2: 66.1. bortezomib and JZL184 gave WM1716: 10500; MeWo: 3040; LB2518-MEL: 3010; UACC-257: 41.8; SK-MEL-2: 202. Results for crizotinib and JZL184 are WM1716: 128; MeWo: 208; LB2518-MEL: 126; UACC-257: 36.8; SK-MEL-2: 81.1. bortezomib and BMS-536924 gave WM1716: 12200; MeWo: 2220; LB2518-MEL: 5060; UACC-257: 183; SK-MEL-2: 45.7.

VX-702 and CX-4945 gave WM1716: 129; MeWo: 141; LB2518-MEL: 63.0; UACC-257: 68.1; SK-MEL-2: 244. For enzastaurin and bortezomib the values were WM1716: 21100; MeWo: 3750; LB2518-MEL: 5480; UACC-257: 35.1; SK-MEL-2: 664. erlotinib and cisplatin gave WM1716: 65.6; MeWo: 99.4; LB2518-MEL: 139; UACC-257: 132; SK-MEL-2: 104. Results for erlotinib and BMS-536924 are WM1716: 75.5; MeWo: 171; LB2518-MEL: 356; UACC-257: 112; SK-MEL-2: 142.

Results for crizotinib and CX-4945 are WM1716: 189; MeWo: 158; LB2518-MEL: 75.7; UACC-257: 45.2; SK-MEL-2: 312.

Some entries from above, unchanged:

Combination	WM1716	MeWo	LB2518-MEL	UACC-257	SK-MEL-2
GW0742 and bortezomib	9770	2720	-	38.4	204
crizotinib and JZL184	128	208	126	36.8	81.1

Values as published with doi:10.1371/journal.pone.0140310, rounded.